Only a part is listed here, and it is no random draw. At the low end of the ranking the order means little.
Legend:
Assay in all cases: DAPPL (digital affinity profiling via proximity ligation, sequencing)
Settings in all cases: 10 mM Tris-HCl pH 7.5, 50 mM NaCl, 1 mM DTT, 4% glycerol, room temperature, 30 min; GST-TFs on glutathione beads, 16-mer random dsDNA library, 0.1% …; high values mean tight binding; double strand, one strand shown; scale: fold enrichment (6-mer frequency, TF over GST control)
ELF3 = biological target: T1, ELF3 (UniProt P78545)
T1 sequence: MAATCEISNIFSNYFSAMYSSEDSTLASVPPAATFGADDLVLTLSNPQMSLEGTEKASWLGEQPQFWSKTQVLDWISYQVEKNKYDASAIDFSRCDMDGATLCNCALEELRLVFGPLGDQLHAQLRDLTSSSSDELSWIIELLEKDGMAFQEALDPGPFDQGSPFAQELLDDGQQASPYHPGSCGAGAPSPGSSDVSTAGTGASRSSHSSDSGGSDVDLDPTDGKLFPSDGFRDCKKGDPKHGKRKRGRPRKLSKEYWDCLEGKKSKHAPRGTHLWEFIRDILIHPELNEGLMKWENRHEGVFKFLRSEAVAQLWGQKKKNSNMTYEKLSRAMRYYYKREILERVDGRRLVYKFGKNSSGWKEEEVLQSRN

Chains of the proteins cited; added tags and fusions are not shown. Lines headed by an entry give the natural chain unless they say otherwise; changes in a name come on top.
UniProt Q9Y603: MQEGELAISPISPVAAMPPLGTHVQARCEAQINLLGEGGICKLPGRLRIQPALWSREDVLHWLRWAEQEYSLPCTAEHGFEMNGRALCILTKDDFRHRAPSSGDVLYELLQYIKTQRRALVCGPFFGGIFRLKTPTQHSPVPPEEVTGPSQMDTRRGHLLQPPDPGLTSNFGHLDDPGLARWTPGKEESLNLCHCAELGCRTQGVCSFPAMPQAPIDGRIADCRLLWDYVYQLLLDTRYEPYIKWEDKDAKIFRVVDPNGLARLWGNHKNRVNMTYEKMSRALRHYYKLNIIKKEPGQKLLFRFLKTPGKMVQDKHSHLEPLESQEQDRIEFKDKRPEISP
UniProt P41212: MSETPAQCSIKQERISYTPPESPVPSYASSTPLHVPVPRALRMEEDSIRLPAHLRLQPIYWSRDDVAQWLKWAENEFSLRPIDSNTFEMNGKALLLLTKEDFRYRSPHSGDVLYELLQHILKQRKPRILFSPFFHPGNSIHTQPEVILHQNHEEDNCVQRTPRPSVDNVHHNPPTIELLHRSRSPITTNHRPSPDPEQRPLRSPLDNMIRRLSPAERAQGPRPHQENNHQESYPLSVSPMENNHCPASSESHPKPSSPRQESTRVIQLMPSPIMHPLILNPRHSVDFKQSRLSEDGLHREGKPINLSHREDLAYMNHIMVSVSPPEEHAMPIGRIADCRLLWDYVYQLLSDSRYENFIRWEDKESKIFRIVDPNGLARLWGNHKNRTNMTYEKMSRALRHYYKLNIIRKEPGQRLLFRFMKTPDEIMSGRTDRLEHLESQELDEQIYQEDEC

ETV7 = ETV7 (UniProt Q9Y603)
ETV6 = ETV6 (UniProt P41212)

Sequence	binding signal (ELF3)	binding signal (ETV7)	binding signal (ETV6)
GTTACG	0.986	1.02	–
ATCATT	1.05	1.01	1.06
CTCAGG	1.15	0.978	–
AAAATT	1.43	1.5	–
CCCTCC	1.27	1.37	–
CGATCC	1.08	1.1	–
GCCCCT	1.24	1.22	–
AGCCCT	1.1	0.971	–
CTGTAA	0.939	0.896	–
CATGAA	1.15	0.96	0.943
CGCTAC	1.24	1.2	1.27
CTAATG	1.27	1.3	–
TCTCTG	1.37	1.29	–
ATCTTT	1.17	1.13	1.2
GAACAC	1.13	1.15	–
CAGAAT	0.821	0.964	–
TACGCC	1.14	1.19	–
CGAGCT	0.982	1.02	–
TTGAAC	0.932	1.18	1.1

Quoted at random: two entries already listed.
Sequence	binding signal (ELF3)	binding signal (ETV7)	binding signal (ETV6)
CCCTCC	1.27	1.37	–
ATCTTT	1.17	1.13	1.2

Later entries

Sequence	binding signal (ELF3)	binding signal (ETV7)	binding signal (ETV6)
ATACCA	0.99	1.02	–
GAATCT	1.03	1.03	–
ATTGCC	1.24	1.22	1.26
GCCTAT	0.868	1.24	1.19
ATTCAG	0.999	1.02	–
TGAACT	1.11	1.21	1.22
ATAAAC	1.13	1.05	1.19
GAAAAG	0.986	1.13	1.18
GGTCCC	0.961	1.15	1.09
CGACGA	0.977	1.11	–
GATCCT	1.03	1.2	–
ATCGTC	0.795	0.976	–
TAGCGG	1.02	1.12	1.12
ATGTAA	1.39	1.26	–
GCTTTA	1.13	1.19	–
AAATTT	1.43	1.36	–
GATACT	0.98	0.983	1.07
CGTTAA	1.27	–	1.16

Source: publication PMC7862700
